Results published in article PMC4976216.
Results are given in words; binding and its absence hold for the method and conditions named. For part of these data: Binding calls can cover weak binding; strength is not graded here. Sequences can lack the tags named with a protein.

How the values were obtained:
[1] = target: taxol-stabilized microtubules (polymerized tubulin); experiment: co-sedimentation; microtubule binding spin-down assay: 20 μl taxol-stabilized microtubules (0.5 mg/ml) with 2 μg test protein and 40 μg BSA in 200 μl 80 mM PIPES pH 7.0, 2 mM MgCl2, 0.5 mM EGTA, 30 min; spun at 100,000g through a 60% glycerol cushion; both purified
[2] = target: microtubules made from purified wild-type yeast tubulin (Saccharomyces cerevisiae); experiment: co-sedimentation; microtubule binding spin-down assay with yeast tubulin polymerized at 30 °C, experiment carried out at 30 °C; anti-tubulin and anti-CGN western blot; both purified
[3] = target: subtilisin-digested microtubules (C-terminal tails cleaved); experiment: co-sedimentation; microtubule binding spin-down assay: 20 μl taxol-stabilized microtubules (0.5 mg/ml) with 2 μg test protein and 40 μg BSA in 200 μl 80 mM PIPES pH 7.0, 2 mM MgCl2, 0.5 mM EGTA, 30 min; spun at 100,000g through a 60% glycerol cushion; both purified

binding [1] | binding [2] | Binder | binding [3]
binds | binds | GST-CGN(1-406) (domain or fragment, UniProt Q9P2M7 1-406) MEQAPNMAEPRGPVDHGVQIRFITEPVSGAEMGTLRRGGRRPAKDARASTYGVAVRVQGIAGQPFVVLNSGEKGGDSFGVQIKGANDQGASGALSSDLELPENPYSQVKGFPAPSQSSTSDEEPGAYWNGKLLRSHSQASLAGPGPVDPSNRSNSMLELAPKVASPGSTIDTAPLSSVDSLINKFDSQLGGQARGRTGRRTRMLPPEQRKRSKSLDSRLPRDTFEERERQSTNHWTSSTKYDNHVGTSKQPAQSQNLSPLSGFSRSRQTQDWVLQSFEEPRRSAQDPTMLQFKSTPDLLRDQQEAAPPGSVDHMKATIYGILREGSSESETSVRRKVSLVLEKMQPLVMVSSGSTKAVAGQGELTRKVEELQRKLDEEVKKRQKLEPSQVGLERQLEEKTEECSRL | no binding (tested: 2 μg test protein in 200 μl)
binds | – | CGN-M1 (R36/37A) (domain or fragment, UniProt Q9P2M7 1-406) MEQAPNMAEPRGPVDHGVQIRFITEPVSGAEMGTLAAGGRRPAKDARASTYGVAVRVQGIAGQPFVVLNSGEKGGDSFGVQIKGANDQGASGALSSDLELPENPYSQVKGFPAPSQSSTSDEEPGAYWNGKLLRSHSQASLAGPGPVDPSNRSNSMLELAPKVASPGSTIDTAPLSSVDSLINKFDSQLGGQARGRTGRRTRMLPPEQRKRSKSLDSRLPRDTFEERERQSTNHWTSSTKYDNHVGTSKQPAQSQNLSPLSGFSRSRQTQDWVLQSFEEPRRSAQDPTMLQFKSTPDLLRDQQEAAPPGSVDHMKATIYGILREGSSESETSVRRKVSLVLEKMQPLVMVSSGSTKAVAGQGELTRKVEELQRKLDEEVKKRQKLEPSQVGLERQLEEKTEECSRL | –
binds | – | CGN-M2 (R40/41A) (domain or fragment, UniProt Q9P2M7 1-406) MEQAPNMAEPRGPVDHGVQIRFITEPVSGAEMGTLRRGGAAPAKDARASTYGVAVRVQGIAGQPFVVLNSGEKGGDSFGVQIKGANDQGASGALSSDLELPENPYSQVKGFPAPSQSSTSDEEPGAYWNGKLLRSHSQASLAGPGPVDPSNRSNSMLELAPKVASPGSTIDTAPLSSVDSLINKFDSQLGGQARGRTGRRTRMLPPEQRKRSKSLDSRLPRDTFEERERQSTNHWTSSTKYDNHVGTSKQPAQSQNLSPLSGFSRSRQTQDWVLQSFEEPRRSAQDPTMLQFKSTPDLLRDQQEAAPPGSVDHMKATIYGILREGSSESETSVRRKVSLVLEKMQPLVMVSSGSTKAVAGQGELTRKVEELQRKLDEEVKKRQKLEPSQVGLERQLEEKTEECSRL | –

Binder | binding [1] | binding [2] | binding [3]
GST-CGN(1015-1203) (domain or fragment, UniProt Q9P2M7 1015-1203) DLECDKISLERQNKDLKTRLASSEGFQKPSASLSQLESQNQLLQERLQAEEREKTVLQSTNRKLERKVKELSIQIEDERQHVNDQKDQLSLRVKALKRQVDEAEEEIERLDGLRKKAQREVEEQHEVNEQLQARIKSLEKDSWRKASRSAAESALKNEGLSSDEEFDSVYDPSSIASLLTESNLQTSSC | no binding (tested: 2 μg test protein in 200 μl) | – | –
